This note sets out measurements from paper PMC11955112.

The chains behind the UniProt entries cited, without tags or fusion partners. Residues count along the entry.
UniProt Q93009: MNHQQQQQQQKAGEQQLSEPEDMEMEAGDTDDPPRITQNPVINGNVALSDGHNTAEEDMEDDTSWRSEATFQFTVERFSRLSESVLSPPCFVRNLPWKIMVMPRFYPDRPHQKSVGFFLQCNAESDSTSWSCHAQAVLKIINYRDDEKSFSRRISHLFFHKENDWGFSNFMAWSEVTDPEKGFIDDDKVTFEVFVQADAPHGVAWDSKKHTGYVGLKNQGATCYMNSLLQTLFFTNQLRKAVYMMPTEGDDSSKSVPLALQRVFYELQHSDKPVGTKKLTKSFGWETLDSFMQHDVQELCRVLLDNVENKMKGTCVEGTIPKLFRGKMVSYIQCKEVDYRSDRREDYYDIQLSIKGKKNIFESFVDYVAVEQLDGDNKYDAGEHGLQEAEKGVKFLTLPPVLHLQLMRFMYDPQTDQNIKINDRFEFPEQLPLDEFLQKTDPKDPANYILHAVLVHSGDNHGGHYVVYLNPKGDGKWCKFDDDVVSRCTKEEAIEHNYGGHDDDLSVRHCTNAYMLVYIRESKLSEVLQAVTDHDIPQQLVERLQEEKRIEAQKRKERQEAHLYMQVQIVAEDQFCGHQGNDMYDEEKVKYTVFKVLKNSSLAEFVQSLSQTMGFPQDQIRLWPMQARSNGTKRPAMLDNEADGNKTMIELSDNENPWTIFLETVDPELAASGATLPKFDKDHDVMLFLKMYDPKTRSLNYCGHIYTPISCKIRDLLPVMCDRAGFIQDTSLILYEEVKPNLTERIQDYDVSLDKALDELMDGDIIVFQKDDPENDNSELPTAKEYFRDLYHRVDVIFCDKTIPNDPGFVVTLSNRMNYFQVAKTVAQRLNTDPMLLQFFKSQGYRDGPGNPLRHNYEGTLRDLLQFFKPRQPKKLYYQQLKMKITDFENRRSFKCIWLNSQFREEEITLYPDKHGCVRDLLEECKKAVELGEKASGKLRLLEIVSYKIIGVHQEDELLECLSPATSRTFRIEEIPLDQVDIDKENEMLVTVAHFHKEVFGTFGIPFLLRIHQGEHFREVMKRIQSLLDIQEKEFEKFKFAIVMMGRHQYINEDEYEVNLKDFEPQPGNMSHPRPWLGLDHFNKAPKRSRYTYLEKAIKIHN
UniProt Q9NZQ7, residues 19-290: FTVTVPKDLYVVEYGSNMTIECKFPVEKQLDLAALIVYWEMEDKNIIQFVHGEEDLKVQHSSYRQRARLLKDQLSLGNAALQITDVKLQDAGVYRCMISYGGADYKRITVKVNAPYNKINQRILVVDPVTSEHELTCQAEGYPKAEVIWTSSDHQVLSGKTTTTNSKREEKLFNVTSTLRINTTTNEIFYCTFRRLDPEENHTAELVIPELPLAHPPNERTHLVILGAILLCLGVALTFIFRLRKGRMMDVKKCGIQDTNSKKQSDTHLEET

Results are given in words; binding and its absence hold for the method and conditions named. In cells and extracts the contact can be indirect. Some binding calls cover weakened binding; strength is not graded here.

The test deals with ubiquitin-specific protease 7 (USP7) (human (endogenous in KYSE150 and TE1)) (UniProt Q93009). In words: co-IP; endogenous proteins in lysates of KYSE150 and TE1 cells; indicated primary antibodies or isotype control IgG, protein A/G magnetic beads, washed with NP-40 buffer, western blot; also in cells overexpressing circNF1 or with ANXA1 knocked down.

For the molecule “programmed cell death ligand 1 (PD-L1) (from UniProt Q9NZQ7 19-290)”, the binding entry is recorded as “binds”.

B1: annexin A1 (ANXA1) (protein, UniProt P04083 1-346)
chain: MAMVSEFLKQAWFIENEEQEYVQTVKSSKGGPGSAVSPYPTFNPSSDVAALHKAIMVKGVDEATIIDILTKRNNAQRQQIKAAYLQETGKPLDETLKKALTGHLEEVVLALLKTPAQFDADELRAAMKGLGTDEDTLIEILASRTNKEIRDINRVYREELKRDLAKDITSDTSGDFRNALLSLAKGDRSEDFGVNEDLADSDARALYEAGERRKGTDVNVFNTILTTRSYPQLRRVFQKYTKYSKHDMNKVLDLELKGDIEKCLTAIVKCATSKPAFFAEKLHQAMKGVGTRHKALIRIMVSRSEIDMNDIKAFYQKMYGISLCQAILDETKGDYEKILVALCGGN
For the molecule B1, the binding result is listed as “binds”.
